According to PubChem BioAssay AID248 (DTP/NCI, 2004):
The list shows only some results of the screen, not a fair sample: it is rich in T/C values a quarter to a half above the control, in often repeated tests (any T/C) and in doses without a T/C. Other doses and runs of a compound stand elsewhere. T/C is the treated group as % of the vehicle group. Some doses have a count of surviving animals in place of a T/C: the source files T/C as zero there, which appears to mark a toxic dose or a test without result, not a measured value. Some survivor counts are full or nearly so, which does not show that the dose was tolerated: the source hardly ever lists a survival T/C far under the control, and the zero likely stands for such cases as well. Survivors were counted at the toxicity check, usually on the fifth day, unless a day is given; later deaths do not show. Schedules are NCI's codes, taken here to give the interval after Q, in days (D) or hours (H), and the number of doses after X. Some schedules carry Z or #; the key to these is not given. Some molecules as drawn cover several salts, stereoisomers or complexes of the source; a dose is that of the sample tested. Where survival is the endpoint, this PubChem deposit counts one and a half times the control or more as active, and values a quarter to a half above the control carry no call in these data; other NCI protocols may use other cut-offs. Some T/C values are followed by the survivors on the day toxicity was checked, most often the fifth; without a count, all were alive then. Some entries were tested several times; the values are given in rising order.

System: L1210 leukemia ip in BDF1 mice, survival T/C
Assay: NCI In Vivo Anticancer Drug Screen. Data for tumor model L1210 Leukemia (intraperitoneal) in B6D2F1 (BDF1) mice
Details: T/C endpoint: mean survival time, higher T/C = longer survival
[1] = dose: 400.0 mg/kg/injection, schedule: Q01DX001 (ip), vehicle: saline
[2] = dose: 400.0 mg/kg/injection, schedule: Q01DX009 (ip), vehicle: saline
[3] = dose: 100.0 mg/kg/injection, schedule: Q04DX003 (ip), vehicle: saline
[4] = dose: 400.0 mg/kg/injection, schedule: Q04DX003 (ip), vehicle: saline
[5] = dose: 200.0 mg/kg/injection, schedule: Q01DX001 (ip), vehicle: saline
[6] = dose: 50.0 mg/kg/injection, schedule: Q01DX001 (ip), vehicle: carboxymethylcellulose (CMC)
[7] = dose: 200.0 mg/kg/injection, schedule: Q01DX009 (ip), vehicle: saline with Tween-80
[8] = dose: 400.0 mg/kg/injection, schedule: Q01DX009 (ip), vehicle: saline with Tween-80
[9] = dose: 400.0 mg/kg/injection, schedule: Q01DX001 (ip), vehicle: carboxymethylcellulose (CMC)
[10] = dose: 200.0 mg/kg/injection, schedule: Q01DX001 (ip), vehicle: carboxymethylcellulose (CMC)
[11] = dose: 200.0 mg/kg/injection, schedule: Q01DX009 (ip), vehicle: saline
[12] = dose: 400.0 mg/kg/injection, schedule: Q04DX003 (ip), vehicle: saline sonified

Compound: CCN(CC)COC(=O)C(C)(C)C
- survivor count (dose: 300.0 mg/kg/injection, schedule: Q01DX001 (ip), vehicle: carboxymethylcellulose (CMC)): 1 of 6

Compound: COc1ccc(N=C(N)N=C(N)N)cc1
- survivor count [1]: 2 of 4
- survivor count [2]: 3 of 6

Compound: Nc1ncnc2c1ncn2CCCCCl
- survivor count [3]: 5 of 6
- survivor count (dose: 200.0 mg/kg/injection, schedule: Q04DX003 (ip), vehicle: saline): 0 of 6
- survivor count [4]: 0 of 6

Compound: CCCC1([N+]2(C)CCCC2)CS(=O)C1CC (stereo not drawn)
- survivor count [4]: 1 of 6

Compound: CCOC(=O)c1cc(C(=O)O)[nH]c(=O)c1C#N
- survivor count (dose: 200.0 mg/kg/injection, schedule: Q04DX003 (ip), vehicle: saline with Tween-80): 6 of 6

Compound: CC(=O)/C=C(\C)OB(F)F
- survivor count [5]: 0 of 5
- survivor count [1]: 0 of 6

Compound: CCCCCCC(C)NCC(C)O (stereo not drawn)
- survivor count (dose: 150.0 mg/kg/injection, schedule: Q01DX001 (ip), vehicle: acid diluted with saline): 0 of 6
- survivor count (dose: 300.0 mg/kg/injection, schedule: Q01DX001 (ip), vehicle: acid diluted with saline): 0 of 6

Compound: CC(C)(C)O[Si](C)(C)CCl
- survivor count [6]: 0 of 4

Compound: c1ccc(-n2ncn[n+]2-c2ccccc2)cc1
- survivor count (dose: 100.0 mg/kg/injection, schedule: Q01DX001 (ip), vehicle: saline): 0 of 6
- survivor count [5]: 0 of 6
- survivor count [1]: 0 of 6

Compound: O=C(O)C(O)(C1CCCCC1)C1CCC2CCC3CCCC1C32 (stereo not drawn)
- survivor count [7]: 6 of 6
- survivor count [8]: 6 of 6

Compound: O=[N+]([O-])c1ccc(S)cc1
- survivor count (dose: 200.0 mg/kg/injection, schedule: Q04DX003 (ip), vehicle: Klucel (hydroxypropylcellulose) (HPC)): 6 of 6

Compound: O=c1[nH]cc(S)c(=O)[nH]1
- survivor count (dose: 200.0 mg/kg/injection, schedule: Q01DX015 (ip), vehicle: carboxymethylcellulose (CMC)): 3 of 6
- survivor count [9]: 0 of 4
- survivor count (dose: 400.0 mg/kg/injection, schedule: Q01DX015 (ip), vehicle: carboxymethylcellulose (CMC)): 0 of 6
- survivor count (dose: 800.0 mg/kg/injection, schedule: Q01DX001 (ip), vehicle: carboxymethylcellulose (CMC)): 0 of 4
- survivor count (dose: 800.0 mg/kg/injection, schedule: Q01DX015 (ip), vehicle: carboxymethylcellulose (CMC)): 0 of 6
- survivor count (dose: 1600.0 mg/kg/injection, schedule: Q01DX001 (ip), vehicle: carboxymethylcellulose (CMC)): 0 of 4

Compound: O=C1C(Br)=CC(=NCl)C=C1Br
- survivor count (dose: 25.0 mg/kg/injection, schedule: Q01DX009 (ip), vehicle: DMSO): 3 of 6
- survivor count (dose: 50.0 mg/kg/injection, schedule: Q04DX002 (ip), vehicle: DMSO): 1 of 3
- survivor count (dose: 100.0 mg/kg/injection, schedule: Q04DX002 (ip), vehicle: DMSO): 0 of 3
- survivor count (dose: 200.0 mg/kg/injection, schedule: Q04DX002 (ip), vehicle: DMSO): 0 of 3
- survivor count (dose: 400.0 mg/kg/injection, schedule: Q04DX002 (ip), vehicle: DMSO): 0 of 3

Compound: CN(C)C1C2(C)CCC(C2)C1(C)C (stereo not drawn)
- survivor count [6]: 0 of 4
- survivor count (dose: 80.0 mg/kg/injection, schedule: Q01DX001 (ip), vehicle: carboxymethylcellulose (CMC)): 1 of 4
- survivor count (dose: 100.0 mg/kg/injection, schedule: Q01DX001 (ip), vehicle: carboxymethylcellulose (CMC)): 0 of 4
- survivor count [10]: 0 of 4
- survivor count [9]: 0 of 4

Compound: COc1ncnc2c1c(C#N)cn2C1OC(CO)C(O)C1O (stereo not drawn)
- T/C (dose: 6.25 mg/kg/injection, schedule: Q01DX009 (ip), vehicle: saline): 134 % of control
- T/C (dose: 12.5 mg/kg/injection, schedule: Q01DX009 (ip), vehicle: saline): 129 and 137 % of control [4 of 6 alive]
- T/C (dose: 25.0 mg/kg/injection, schedule: Q01DX009 (ip), vehicle: saline): 133 and 143 % of control
- T/C (dose: 100.0 mg/kg/injection, schedule: Q01DX005 (ip), vehicle: saline): 125 % of control
- survivor count [11]: 1 of 6

Compound: Oc1c(Cl)cc(Cl)c2cccnc12
- survivor count [10]: 0 of 4
- survivor count [7]: 4 of 6
- survivor count [9]: 0 of 4

Compound: CC(CN)OC12CC3CC(CC(C3)C1)C2 (stereo not drawn)
- T/C (dose: 20.0 mg/kg/injection, schedule: Q04DX002 (ip), vehicle: saline): 139 % of control
- survivor count (dose: 100.0 mg/kg/injection, schedule: Q04DX002 (ip), vehicle: saline): 1 of 3
- survivor count (dose: 200.0 mg/kg/injection, schedule: Q04DX002 (ip), vehicle: saline): 0 of 3
- survivor count (dose: 400.0 mg/kg/injection, schedule: Q04DX002 (ip), vehicle: saline): 0 of 3

Compound: ClC1(Cl)CC1c1ccccc1 (stereo not drawn)
- survivor count [8]: 2 of 6

Compound: C=C1C(=O)O[C@H]2C=C(C)[C@H]3[C@@H](OC(C)=O)C[C@@](C)(O)[C@@H]3C[C@H]12
- survivor count (dose: 100.0 mg/kg/injection, schedule: Q01DX Z (ip), vehicle: carboxymethylcellulose (CMC)): 0 of 4
- survivor count (dose: 200.0 mg/kg/injection, schedule: Q01DX Z (ip), vehicle: carboxymethylcellulose (CMC)): 0 of 4

Compound: COc1cc(N=Nc2ccc([N+](=O)[O-])cc2)c(OC)cc1N
- survivor count (dose: 80.0 mg/kg/injection, schedule: Q01DX001 (ip), vehicle: other): 2 of 4
- survivor count (dose: 100.0 mg/kg/injection, schedule: Q01DX001 (ip), vehicle: other): 0 of 4
- survivor count (dose: 200.0 mg/kg/injection, schedule: Q01DX001 (ip), vehicle: other): 0 of 4
- survivor count (dose: 400.0 mg/kg/injection, schedule: Q01DX001 (ip), vehicle: other): 0 of 4

Compound: C(COCC1CO1)OCC1CO1 (stereo not drawn)
- T/C (dose: 50.0 mg/kg/injection, schedule: Q01DX009 (ip), vehicle: saline): 125 and 132 % of control
- survivor count [11]: 1 of 6
- survivor count [4]: 0 of 6
- survivor count (dose: 675.0 mg/kg/injection, schedule: Q01DX Z (ip), vehicle: saline): 4 of 6

Compound: CCOC(=O)/C(C)=N\N(C)C
- survivor count [2]: 0 of 6

Compound: c1cnc2c3c(ccc2c1)CN(C1CCCCC1)CO3
- survivor count [12]: 0 of 6

Compound: COc1ccc(OC(=O)Nc2cc([N+](=O)[O-])ccc2OC)cc1
- survivor count (dose: 50.0 mg/kg/injection, schedule: Q01DX009 (ip), vehicle: Klucel (hydroxypropylcellulose) (HPC)): 3 of 3
- survivor count (dose: 100.0 mg/kg/injection, schedule: Q01DX009 (ip), vehicle: Klucel (hydroxypropylcellulose) (HPC)): 3 of 3

Compound: Oc1c(Br)cc(Br)cc1/C=N/N=C/c1cc(Br)cc(Br)c1O
- survivor count (dose: 200.0 mg/kg/injection, schedule: Q01DX009 (ip), vehicle: Klucel (hydroxypropylcellulose) (HPC)): 6 of 6

Compound: O=C(NC(Cc1ccccc1)C(=O)CCl)OCc1ccccc1 (stereo not drawn)
- survivor count (dose: 100.0 mg/kg/injection, schedule: Q01DX009 (ip), vehicle: saline with Tween-80): 3 of 6
- survivor count (dose: 200.0 mg/kg/injection, schedule: Q04DX003 (ip), vehicle: saline sonified): 6 of 6
- survivor count [12]: 2 of 6

Compound: CC1(C)N=C(N)N=C(N)N1c1ccc(C(=O)c2ccccc2)cc1
- survivor count [3]: 6 of 6

Compound: Nc1ncnc2c1ncn2C1OC(COC(=O)C2C3CC4CC(C3)CC2C4)C(O)C1O (stereo not drawn)
- survivor count [5]: 2 of 4
- survivor count [1]: 0 of 4

Compound: Cc1ccc(NN)cc1Cl
- survivor count (dose: 400.0 mg/kg/injection, schedule: Q04DX003 (ip), vehicle: Klucel (hydroxypropylcellulose) (HPC)): 0 of 6

Compound: O=C(Nc1cc([N+](=O)[O-])cc([N+](=O)[O-])c1O)C(F)(F)F
- survivor count (dose: 200.0 mg/kg/injection, schedule: Q01DX001 (ip), vehicle: Klucel (hydroxypropylcellulose) (HPC)): 2 of 6
- survivor count (dose: 400.0 mg/kg/injection, schedule: Q01DX001 (ip), vehicle: Klucel (hydroxypropylcellulose) (HPC)): 0 of 3

Compound: Oc1c(Br)cc(F)cc1Br
- survivor count (dose: 400.0 mg/kg/injection, schedule: Q04DX002 (ip), vehicle: saline with Tween-80): 3 of 3
